The shares of active, inactive and inconclusive entries below differ from those in the screen. Potencies beside an inconclusive call are fits to weak or partial responses and may not hold up. Activity calls are given as the source filed them. Calls follow the shape of the dose curve; as a rule, active = well fitted inhibition curve with a large enough effect; inconclusive = small, poorly fitted or top-dose-only effect; inactive = no such curve, though single readings can be large or run the other way.
Test: Acumen qHTS Assay for Inhibitors of the mTORC1 Signaling Pathway in MEF (Tsc2-/-, p53-/-) Cells: Hit Validation;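 also: phospho-rpS6 Ser235/236 immunofluorescence normalized to propidium iodide cell count; nearly all actives have a fitted effect of over 65% in size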
Details: Acumen imaging
Potency is read from the fitted curve at half-maximal effect.

Compound	Potency
COc1cc(OC)cc(C(=O)NCc2ccc3c(c2)CCN3C(=O)c2ccccc2)c1	inconclusive: 2.93 µM [inhibitor, partial curve]
COc1ccc(Cl)cc1NC(=O)CCCS(=O)(=O)c1nc(-c2ccc(OC)c(OC)c2)cc(C(F)(F)F)n1	active: 10.4 µM
CCNC(=O)c1c(NC(=O)c2nc(S(=O)(=O)CC)ncc2Cl)sc2c1CCCC2	active: 1.31 µM
COc1ccc(NC(=O)C(NC(=O)/C=C\c2ccc3c(c2)OCO3)c2ccccc2)cc1 (stereo not given)	active: 11.7 µM
CCOc1ccc(NC(=O)CSc2c3c(nc4ccccc24)CCCC3)cc1	inconclusive: 11.7 µM [inhibitor, partial curve]
COC(=O)c1c(C)oc2ccc(N(C(=O)c3ccncc3)S(=O)(=O)c3ccc(OC)cc3)cc12	active: 1.85 µM
Cc1ccc(CN(Cc2ccco2)C(=O)c2cccc(C)c2)cc1	inconclusive: 2.33 µM [inhibitor, full curve, poor fit]
CN(C(=O)CSc1nc2ccc(NC(=O)COc3ccc(F)cc3)cc2s1)c1ccccc1	inconclusive: 8.26 µM [inhibitor, partial curve, poor fit]
COc1ccc(CC(=O)Nc2sc3c(c2C(=O)Nc2ccccc2)CCCCC3)cc1	inconclusive: 16.5 µM [inhibitor, single point]
CCCC1=Nc2cc(C(=O)NCCOC)ccc2Sc2ccccc21	inconclusive: 1.17 µM [inhibitor, full curve, poor fit]
CCOC(=O)c1c(-c2ccccc2)oc2ccc(NS(=O)(=O)c3ccc(OC)cc3)cc12	inconclusive: 14.7 µM [inhibitor, single point]
Cc1ccc(NC(=O)CSc2ncc3c(n2)-c2ccccc2N(C)S3(=O)=O)c(Cl)c1	inconclusive: 1.47 µM [inhibitor, full curve, poor fit]
CCCc1oc2ccc(NS(=O)(=O)c3ccc(OC)cc3)cc2c1C(=O)OCC	inconclusive: 4.14 µM [inhibitor, partial curve]
O=C(Nc1ccc(-c2cc(C(F)(F)F)nn2-c2ccccc2)cc1)c1cccc(F)c1	inconclusive: 18.5 µM [inhibitor, single point]
Cc1ccc(C)c(CN2C(=O)C(=O)c3ccccc32)c1	active: 1.47 µM
Oc1ccc(NCc2ccc(OCc3ccccc3Cl)cc2)cc1	inconclusive: 7.36 µM [inhibitor, partial curve]
Cn1nc(-c2ccc(OCC(=O)Nc3ccc(Cl)cc3)cc2)c2ccccc2c1=O	inconclusive: 13.1 µM [inhibitor, single point]
CCN(c1ccccc1)S(=O)(=O)c1ccc(NC(=O)c2nc(S(C)(=O)=O)ncc2Cl)cc1	active: 4.14 µM

Compound	Potency
Cc1cccc(Nc2ncc(NC(=O)c3cccc(F)c3)c(Nc3cccc(C)c3)n2)c1	inconclusive: 23.3 µM [inhibitor, partial curve, poor fit]
CCOc1ccc(C(=O)/C=C/c2cn(CC(O)CN3CCCCCC3)c3ccccc23)cc1 (stereo not given)	inconclusive: 23.3 µM [inhibitor, single point]
CCOC(=O)c1ccc(N2C(=O)c3n[nH]c(-c4cccs4)c3C2c2cccc(F)c2)cc1 (stereo not given)	inconclusive: 16.5 µM [inhibitor, single point]
CCCOc1cccc(C2c3c(-c4ccccc4O)n[nH]c3C(=O)N2Cc2ccco2)c1 (stereo not given)	inconclusive: 26.1 µM [inhibitor, single point]
CCc1ccccc1NC(=O)CSc1nc2c(oc3ccccc32)c(=O)n1-c1ccccc1F	inconclusive: 2.61 µM [inhibitor, single point]
Cc1c(C(=O)Nc2ccc(F)cc2F)nnn1-c1ccccc1Br	inconclusive: 18.5 µM [inhibitor, single point]
COc1ccc(NC(=O)c2ccco2)cc1NC(=O)COc1ccccc1Cl	inconclusive: 4.14 µM [inhibitor, full curve]
CCCCCn1c(=N)n(CC(O)COc2cccc(C)c2)c2ccccc21 (stereo not given)	active: 5.85 µM
Oc1ccc(NCc2ccccc2OCc2ccc(Cl)cc2)cc1	inconclusive: 26.1 µM [inhibitor, single point]
Cc1ccc(NC(=O)c2c(C)oc3ccc(O)c(CN(C)Cc4ccccc4)c23)c(C)c1	inconclusive: 26.1 µM [inhibitor, single point]
COc1ccc(Nc2cc(C)nc(-n3nc(C)cc3C)n2)cc1Cl	active: 0.147 µM
Cc1ccc(-c2cc(C(=O)N3CCN(c4ccccc4)CC3)c3ccccc3n2)cc1C	inconclusive: 13.1 µM [inhibitor, single point]
Cc1cccc(OCC(=O)Nc2ccc3c(c2)N(C)C(=O)c2ccccc2S3)c1	inconclusive: 1.17 µM [inhibitor, full curve]
COc1ccc(NC(=O)c2c(C)oc3ccc(O)c(CN4CCCC(C)C4)c23)cc1Cl (stereo not given)	active: 9.27 µM
O=C(COc1ccccc1-c1nc(-c2ccccc2)no1)Nc1cccc([N+](=O)[O-])c1	active: 1.04 µM
N#Cc1ccc(-c2cccs2)nc1SCc1c(F)cccc1Cl	inconclusive: 1.47 µM [inhibitor, full curve]
COc1cc(O)ccc1-c1nc2ccc(Br)cn2c1Nc1ccccc1C	inconclusive: 23.3 µM [inhibitor, single point]

Copied from the results shown (2 entries):
Compound	Potency
CCCc1oc2ccc(NS(=O)(=O)c3ccc(OC)cc3)cc2c1C(=O)OCC	inconclusive: 4.14 µM [inhibitor, partial curve]
O=C(Nc1ccc(-c2cc(C(F)(F)F)nn2-c2ccccc2)cc1)c1cccc(F)c1	inconclusive: 18.5 µM [inhibitor, single point]

— PubChem BioAssay AID651784 (National Center for Advancing Translational Sciences (NCATS), 2012)
